Experimental data: US20210138043A1
These are yes or no findings as the source states them, for the method shown. Some results given as binding are weak or reduced against the parent protein; the word gives no strength. Where a sequence is shown, tags or fusion partners need not be part of it.

Assays:
myostatin [1] = target: T1, myostatin (UniProt O14793); assay: ELISA of free myostatin after exposure to ECM with immobilized MI
T1 sequence (looked up): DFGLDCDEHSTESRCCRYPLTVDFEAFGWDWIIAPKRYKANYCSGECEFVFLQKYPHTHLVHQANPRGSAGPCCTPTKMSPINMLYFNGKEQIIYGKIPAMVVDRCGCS

myostatin [2] = target: T1, myostatin; assay: MI-D chain immobilized by FXIIIa on decellularized ECM, exposed to myostatin

B1: myostatin inhibitor (MI) with TG tag (IGF-I D chain attached to the C-terminus of the MI) (peptide)
peptide: VATQGQCTRWPWMCPPQGWGPLKPAKSA
binding (myostatin [1]): binds | binding (myostatin [2]): binds
